How the values were obtained:
primary astrocytes [1] = experiment: Extracellular lactate quantification; format: cell-based; conditions: Mus musculus, Astrocyte, 1.5 h; Prestwick hits, 0-100 μM, 90 min
Experimental: Secretion of L-lactate was determined in the extracellular medium of 96-well plated astrocytes after 90 min stimulation (at 37° C., in 5% CO2/95% air conditions) with the drug of interest. The stimulation medium was composed of D5030 medium (completed with D-glucose 5 mM and 44 mM sodium bicarbonate) for 90 min in concentrations ranging from 0 to 100 μM.
Briefly, 200 μl of a Glycine (Sigma)-Semicarbazide (Acros) 0.2M pH 10 buffer containing 3 mM NAD (Roche) and LDH 14 U/ml (Roche) was added to each well of a 96-well plate containing 30 μl aliquots complemented with 20 μl fresh complete D5030 medium. Samples were incubated at 37° C. for 1 h. After samples cooled down at room temperature, the fluorescence intensity (340 nm excitation/450 nm emission) that represents the amount of NADH produced was measured, and lactate concentration values were determined from a standard curve of L-lactate.
Levels of lactate secreted by astrocytes were measured in the extracellular medium at 90 min after stimulation with 20 hits (molecules) from the Prestwick library (10 μM each), as shown in FIG. 1. n=6-10; Ctrl pos. is CCCP (2 uM). Statistical analysis consisted in ANOVA followed by Fisher LSD post-hoc test for pair-wise comparisons.
Levels of lactate secreted by astrocytes were measured in the extracellular medium at 90 min after stimulation with hits (molecules) from the CDC54K library. […]

primary astrocytes [2] = experiment: MTT viability assay; format: cell-based; conditions: Mus musculus, Astrocyte; Prestwick hits, 0-200 uM, 24 h
Experimental: For cell toxicity determination, astrocytes in 96-well plates were stimulated 24 h (37° C. 5% CO2/95% air) with a gradient ranging from 0.1 to 200 μM of tested compounds. After stimulation, 5 mg/ml thiazol blue tetrazolium bromide (MTT, Sigma-Aldrich) in warm D5030 complete medium was added to each well, and cells were incubated for 4 h at 37° C. (5% CO2). The medium was then removed by aspiration, and the reaction was stopped by the addition of 50 μl DMSO per well.
The amount of reduced MTT (formazan) solubilized in DMSO was then determined spectrophotometrically using absorbance at 570 nm (Safire 2; Tecan).
MTT cellular viability assay was performed on astrocytes exposed to Preswtick Hits (concentrations ranging from 0 uM to 200 uM).
MTT cellular viability assay was performed on astrocytes exposed to CDC54K Hits (concentrations ranging from 0 uM to 200 uM).

**Q.** Which EC50 (primary astrocytes [1]) does the source give for `Clc1ccc2c(c1)CCc1cccnc1C2=C1CCNCC1` [Desloratadine] here?
**A.** Its EC50 is 2.1 µM.

**Q.** What about the IC50 (primary astrocytes [2]) of the same compound?
**A.** The IC50 was 11 µM.

Source: US12310967B2, “Compositions and methods of treatment for neurological disorders comprising motor neuron diseases” (Gliapharm SA, priority 2017, dated 2025)
